Laboratory results as given in patent publication US20160376356A1.
Where a chain is given by its changes, count along the chain named. Results are given in words; binding and its absence hold for the method and conditions named. Some results given as binding are weak or reduced against the parent protein; the word gives no strength.

Amino acid sequences for entries named in this document (tags omitted). A change or cut given only in a name is not applied to a line headed by its entry. Chains listed by the source or under a name are the forms on record and can include a tag or linker.
ED-A isoform of fibronectin (A-FN) in tumour tissue sections (P02751, form named): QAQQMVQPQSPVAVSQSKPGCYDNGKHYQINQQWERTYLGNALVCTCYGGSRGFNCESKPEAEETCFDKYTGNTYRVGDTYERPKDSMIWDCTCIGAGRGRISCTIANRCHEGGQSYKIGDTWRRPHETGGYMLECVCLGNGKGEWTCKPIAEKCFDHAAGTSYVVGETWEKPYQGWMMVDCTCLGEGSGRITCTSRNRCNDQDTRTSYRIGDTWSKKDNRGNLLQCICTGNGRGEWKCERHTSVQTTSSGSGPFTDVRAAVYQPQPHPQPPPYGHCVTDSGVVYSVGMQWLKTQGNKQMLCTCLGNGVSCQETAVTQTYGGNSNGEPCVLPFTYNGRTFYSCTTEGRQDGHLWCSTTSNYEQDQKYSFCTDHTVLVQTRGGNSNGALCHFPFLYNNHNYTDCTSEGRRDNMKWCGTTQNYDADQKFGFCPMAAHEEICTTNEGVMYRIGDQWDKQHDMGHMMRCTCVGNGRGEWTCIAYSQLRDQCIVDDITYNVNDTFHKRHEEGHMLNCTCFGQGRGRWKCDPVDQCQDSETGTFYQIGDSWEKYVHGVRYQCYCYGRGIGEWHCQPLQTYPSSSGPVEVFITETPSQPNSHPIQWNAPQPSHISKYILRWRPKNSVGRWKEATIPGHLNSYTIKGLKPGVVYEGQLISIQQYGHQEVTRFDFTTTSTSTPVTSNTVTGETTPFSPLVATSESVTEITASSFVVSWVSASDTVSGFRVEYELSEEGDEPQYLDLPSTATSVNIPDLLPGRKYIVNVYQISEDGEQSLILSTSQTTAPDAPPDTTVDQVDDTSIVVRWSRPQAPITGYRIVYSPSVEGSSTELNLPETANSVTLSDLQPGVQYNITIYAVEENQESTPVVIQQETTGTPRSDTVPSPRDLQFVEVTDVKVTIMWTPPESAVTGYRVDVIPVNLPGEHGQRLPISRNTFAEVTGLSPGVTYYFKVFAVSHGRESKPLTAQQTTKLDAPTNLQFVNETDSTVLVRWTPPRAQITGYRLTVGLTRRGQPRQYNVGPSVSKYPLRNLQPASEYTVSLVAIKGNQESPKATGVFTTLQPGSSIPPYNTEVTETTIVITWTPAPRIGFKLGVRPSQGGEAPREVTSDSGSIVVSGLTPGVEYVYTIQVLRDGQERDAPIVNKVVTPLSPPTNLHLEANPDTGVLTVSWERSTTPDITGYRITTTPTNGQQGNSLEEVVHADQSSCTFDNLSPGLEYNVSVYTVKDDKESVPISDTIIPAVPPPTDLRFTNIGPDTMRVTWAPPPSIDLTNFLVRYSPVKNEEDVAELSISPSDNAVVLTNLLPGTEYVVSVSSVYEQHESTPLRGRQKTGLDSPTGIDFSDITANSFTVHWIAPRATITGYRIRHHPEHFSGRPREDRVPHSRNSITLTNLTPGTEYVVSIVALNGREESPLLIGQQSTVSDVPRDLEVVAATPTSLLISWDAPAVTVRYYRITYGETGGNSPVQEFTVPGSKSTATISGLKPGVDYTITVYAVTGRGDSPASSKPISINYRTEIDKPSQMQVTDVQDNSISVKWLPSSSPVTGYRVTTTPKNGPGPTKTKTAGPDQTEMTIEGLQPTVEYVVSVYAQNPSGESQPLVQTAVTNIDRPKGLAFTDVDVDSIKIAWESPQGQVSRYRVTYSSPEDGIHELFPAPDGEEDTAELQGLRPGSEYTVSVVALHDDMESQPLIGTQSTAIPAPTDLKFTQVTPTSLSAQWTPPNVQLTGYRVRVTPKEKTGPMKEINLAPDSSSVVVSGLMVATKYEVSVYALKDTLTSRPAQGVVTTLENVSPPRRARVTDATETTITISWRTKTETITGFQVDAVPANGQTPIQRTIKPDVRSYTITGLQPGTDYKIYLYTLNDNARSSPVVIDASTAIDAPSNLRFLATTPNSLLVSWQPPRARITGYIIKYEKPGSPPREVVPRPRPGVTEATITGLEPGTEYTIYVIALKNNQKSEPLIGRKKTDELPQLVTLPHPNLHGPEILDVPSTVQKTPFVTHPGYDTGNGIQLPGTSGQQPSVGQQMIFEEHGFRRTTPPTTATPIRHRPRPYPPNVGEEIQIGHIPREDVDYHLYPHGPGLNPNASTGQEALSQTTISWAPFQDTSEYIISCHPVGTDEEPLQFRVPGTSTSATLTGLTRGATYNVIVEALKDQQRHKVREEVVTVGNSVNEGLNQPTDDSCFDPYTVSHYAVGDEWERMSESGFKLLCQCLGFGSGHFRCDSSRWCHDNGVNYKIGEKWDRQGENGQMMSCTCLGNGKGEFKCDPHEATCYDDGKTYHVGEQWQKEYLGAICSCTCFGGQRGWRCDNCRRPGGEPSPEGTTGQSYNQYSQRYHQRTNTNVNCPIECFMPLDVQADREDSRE

How the values were obtained:
[1] = target: ED-A isoform of fibronectin (A-FN) in tumour tissue sections (human) (UniProt P02751); test: immunohistochemistry, myc-tagged scFv on sections of primary human Ramos lymphoma
[2] = target: ED-A isoform of fibronectin (A-FN) in tumour tissue sections (human) (UniProt P02751); test: immunohistochemistry, myc-tagged scFv on sections of small cell and non-small cell lung cancers

B1: anti-ED-A antibody F8 (scFv)
scFv: EVQLVESGGGLVQPGGSLRLSCAASGFTFSLFTMSWVRQAPGKGLEWVSAISGSGGSTYYADSVKGRFTISRDNSKNTLYLQMNSLRAEDTAVYYCAKSTHLYLFDYWGQGTLVTVSSGGGGSGGGGSGGGGSGGGGSEIVLTQSPGTLSLSPGEKATLSCRASQSVSMPFLAWYQQKPGQAPRLLIYGASSRATGIPDRFSGSGSGTDFTLTISRLEPEDFAVYYCQQMRGRPPTFGQGTKVEIKAAAEQKLISEEDLNGAA
binding [1]: binds

B2: anti-ED-A antibody D5 (scFv)
scFv: B1 scFv with L31V, F32M, T33K, M169N, P170A
binding [2]: binds
